From paper PMC10547799

Molecular target: C-terminal fragment of PLK1 containing a PBD domain, Flag-tagged (human)
Experiment: co-IP; HEK293T co-transfected with UHRF1-His and Flag-tagged PLK1 (full length or truncated); IP with anti-Flag or anti-His; RIPA extracts, antibody 4 °C 12 h, protein A/G magnetic beads; western blot

B1: UHRF1-His (protein, UniProt Q96T88 1-793)
chain: MWIQVRTMDGRQTHTVDSLSRLTKVEELRRKIQELFHVEPGLQRLFYRGKQMEDGHTLFDYEVRLNDTIQLLVRQSLVLPHSTKERDSELSDTDSGCCLGQSESDKSSTHGEAAAETDSRPADEDMWDETELGLYKVNEYVDARDTNMGAWFEAQVVRVTRKAPSRDEPCSSTSRPALEEDVIYHVKYDDYPENGVVQMNSRDVRARARTIIKWQDLEVGQVVMLNYNPDNPKERGFWYDAEISRKRETRTARELYANVVLGDDSLNDCRIIFVDEVFKIERPGEGSPMVDNPMRRKSGPSCKHCKDDVNRLCRVCACHLCGGRQDPDKQLMCDECDMAFHIYCLDPPLSSVPSEDEWYCPECRNDASEVVLAGERLRESKKKAKMASATSSSQRDWGKGMACVGRTKECTIVPSNHYGPIPGIPVGTMWRFRVQVSESGVHRPHVAGIHGRSNDGAYSLVLAGGYEDDVDHGNFFTYTGSGGRDLSGNKRTAEQSCDQKLTNTNRALALNCFAPINDQEGAEAKDWRSGKPVRVVRNVKGGKNSKYAPAEGNRYDGIYKVVKYWPEKGKSGFLVWRYLLRRDDDEPGPWTKEGKDRIKKLGLTMQYPEGYLEALANREREKENSKREEEEQQEGGFASPRTGKGKWKRKSAGGGPSRAGSPRRTSKKTKVEPYSLTAQQSSLIREDKSNAKLWNEVLASLKDRPASGSPFQLFLSKVEETFQCICCQELVFRPITTVCQHNVCKDCLDRSFRAQVFSCPACRYDLGRSYAMQVNQPLQTVLNQLFPGYGNGR
  binding: binds

Results are given in words; binding and its absence hold for the method and conditions named. In cells and extracts the contact can be indirect. Binding calls can cover weak binding; strength is not graded here. Sequences can lack the tags named with a protein.
